These are yes or no findings as the source states them, for the method shown. In cells and extracts the contact can be indirect. Some results given as binding are weak or reduced against the parent protein; the word gives no strength.
Target: T1, endogenous UBF1/2 (upstream binding factor 1) (mouse (endogenous in mouse embryonic fibroblasts / 3T3 cells)) (UniProt P25976)
T1 sequence: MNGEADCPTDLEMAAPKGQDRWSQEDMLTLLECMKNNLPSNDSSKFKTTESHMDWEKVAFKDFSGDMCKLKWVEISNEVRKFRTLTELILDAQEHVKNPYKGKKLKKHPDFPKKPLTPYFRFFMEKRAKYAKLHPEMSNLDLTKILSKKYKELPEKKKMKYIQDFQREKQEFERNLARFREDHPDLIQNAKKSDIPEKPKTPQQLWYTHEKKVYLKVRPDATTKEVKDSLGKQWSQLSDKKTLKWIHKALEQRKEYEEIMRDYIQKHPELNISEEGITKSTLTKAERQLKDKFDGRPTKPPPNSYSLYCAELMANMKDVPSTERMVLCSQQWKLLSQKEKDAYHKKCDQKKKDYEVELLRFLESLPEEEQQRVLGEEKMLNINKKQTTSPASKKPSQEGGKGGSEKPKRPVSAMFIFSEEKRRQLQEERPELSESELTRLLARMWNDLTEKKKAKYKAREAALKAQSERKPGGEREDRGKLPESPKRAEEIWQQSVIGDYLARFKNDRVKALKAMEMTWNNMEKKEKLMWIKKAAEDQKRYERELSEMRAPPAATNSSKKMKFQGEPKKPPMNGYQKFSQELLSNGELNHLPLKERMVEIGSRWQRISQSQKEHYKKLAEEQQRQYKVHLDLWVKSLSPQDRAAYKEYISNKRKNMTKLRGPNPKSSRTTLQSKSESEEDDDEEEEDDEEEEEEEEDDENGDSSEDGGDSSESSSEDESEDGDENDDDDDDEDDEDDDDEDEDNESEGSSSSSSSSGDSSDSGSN
Experiment: co-IP; lysates of cells overexpressing full-length GFP-HP1β or GFP-HP1β-ΔCSD, immunoprecipitated with anti-UBF1 (H-300), Western blot of HP1β

The chains behind the UniProt entries cited, without tags or fusion partners.
UniProt P83917: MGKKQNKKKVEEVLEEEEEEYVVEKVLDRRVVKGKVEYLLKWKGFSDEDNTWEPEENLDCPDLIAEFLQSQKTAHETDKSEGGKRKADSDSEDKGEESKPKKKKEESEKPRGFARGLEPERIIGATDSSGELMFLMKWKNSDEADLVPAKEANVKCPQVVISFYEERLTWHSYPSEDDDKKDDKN

## full-length GFP-HP1β (from UniProt P83917 1-185)
  binding: binds

— article PMC4293114
